The list shows a part of the results.

Chains of the proteins cited; added tags and fusions are not shown. Lines headed by an entry give the natural chain unless they say otherwise; changes in a name come on top.
UniProt Q9BVW5: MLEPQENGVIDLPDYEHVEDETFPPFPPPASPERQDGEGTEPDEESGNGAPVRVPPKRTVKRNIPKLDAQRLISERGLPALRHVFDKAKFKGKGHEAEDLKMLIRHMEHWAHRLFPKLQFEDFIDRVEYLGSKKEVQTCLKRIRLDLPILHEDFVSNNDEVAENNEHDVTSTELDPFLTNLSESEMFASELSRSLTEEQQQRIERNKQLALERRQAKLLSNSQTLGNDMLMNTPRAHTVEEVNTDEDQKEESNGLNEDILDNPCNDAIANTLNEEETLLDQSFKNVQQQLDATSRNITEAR
UniProt Q9NX00: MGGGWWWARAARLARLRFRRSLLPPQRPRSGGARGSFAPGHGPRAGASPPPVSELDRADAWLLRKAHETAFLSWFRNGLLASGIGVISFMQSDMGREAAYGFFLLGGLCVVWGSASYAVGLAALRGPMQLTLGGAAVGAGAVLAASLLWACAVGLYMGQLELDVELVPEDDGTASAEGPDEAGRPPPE
UniProt P52888, whole entry, looked up: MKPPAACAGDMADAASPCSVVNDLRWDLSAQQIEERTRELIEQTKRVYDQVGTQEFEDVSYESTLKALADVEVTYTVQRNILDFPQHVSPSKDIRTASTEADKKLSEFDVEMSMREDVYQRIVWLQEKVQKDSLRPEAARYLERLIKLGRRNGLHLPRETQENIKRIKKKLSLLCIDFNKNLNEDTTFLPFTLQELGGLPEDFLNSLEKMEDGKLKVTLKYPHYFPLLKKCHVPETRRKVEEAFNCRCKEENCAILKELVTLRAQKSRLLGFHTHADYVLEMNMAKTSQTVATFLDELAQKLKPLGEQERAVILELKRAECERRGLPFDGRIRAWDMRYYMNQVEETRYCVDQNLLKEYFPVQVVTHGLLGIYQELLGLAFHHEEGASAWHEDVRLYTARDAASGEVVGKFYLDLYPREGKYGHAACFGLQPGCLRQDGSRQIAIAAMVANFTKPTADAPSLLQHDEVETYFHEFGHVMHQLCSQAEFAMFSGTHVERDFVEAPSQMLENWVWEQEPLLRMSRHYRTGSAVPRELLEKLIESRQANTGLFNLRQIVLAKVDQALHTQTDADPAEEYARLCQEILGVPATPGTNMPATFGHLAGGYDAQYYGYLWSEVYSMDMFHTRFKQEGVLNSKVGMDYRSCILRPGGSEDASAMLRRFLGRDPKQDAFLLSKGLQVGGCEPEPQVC
UniProt Q9NX61: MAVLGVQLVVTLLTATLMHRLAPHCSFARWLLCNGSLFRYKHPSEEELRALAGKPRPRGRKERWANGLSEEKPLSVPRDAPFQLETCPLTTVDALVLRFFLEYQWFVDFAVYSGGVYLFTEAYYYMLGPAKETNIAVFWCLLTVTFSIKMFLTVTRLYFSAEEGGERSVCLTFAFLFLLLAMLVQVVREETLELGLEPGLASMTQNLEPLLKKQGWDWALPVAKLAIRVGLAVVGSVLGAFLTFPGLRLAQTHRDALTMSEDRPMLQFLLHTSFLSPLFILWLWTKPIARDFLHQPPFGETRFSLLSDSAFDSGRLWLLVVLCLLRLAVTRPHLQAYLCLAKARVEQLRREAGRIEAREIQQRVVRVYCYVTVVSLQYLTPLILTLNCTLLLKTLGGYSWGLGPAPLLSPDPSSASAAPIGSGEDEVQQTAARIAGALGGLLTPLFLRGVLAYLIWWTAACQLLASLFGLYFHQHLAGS
UniProt P29401: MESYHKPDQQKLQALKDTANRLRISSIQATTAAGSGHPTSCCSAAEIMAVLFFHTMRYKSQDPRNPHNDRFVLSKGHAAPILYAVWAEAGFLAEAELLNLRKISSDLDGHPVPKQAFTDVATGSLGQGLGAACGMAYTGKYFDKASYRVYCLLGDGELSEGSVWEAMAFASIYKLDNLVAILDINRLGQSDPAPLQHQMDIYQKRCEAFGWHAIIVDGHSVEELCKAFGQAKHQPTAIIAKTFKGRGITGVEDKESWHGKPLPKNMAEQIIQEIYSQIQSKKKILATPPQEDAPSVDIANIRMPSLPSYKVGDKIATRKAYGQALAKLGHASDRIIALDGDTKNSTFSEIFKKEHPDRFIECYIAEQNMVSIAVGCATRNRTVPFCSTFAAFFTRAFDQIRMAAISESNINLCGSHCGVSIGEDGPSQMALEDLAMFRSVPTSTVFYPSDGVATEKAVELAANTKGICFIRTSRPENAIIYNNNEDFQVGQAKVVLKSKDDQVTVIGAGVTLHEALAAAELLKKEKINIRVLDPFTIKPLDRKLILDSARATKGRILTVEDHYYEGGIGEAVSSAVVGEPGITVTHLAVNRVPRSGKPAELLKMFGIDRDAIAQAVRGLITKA
UniProt P31483: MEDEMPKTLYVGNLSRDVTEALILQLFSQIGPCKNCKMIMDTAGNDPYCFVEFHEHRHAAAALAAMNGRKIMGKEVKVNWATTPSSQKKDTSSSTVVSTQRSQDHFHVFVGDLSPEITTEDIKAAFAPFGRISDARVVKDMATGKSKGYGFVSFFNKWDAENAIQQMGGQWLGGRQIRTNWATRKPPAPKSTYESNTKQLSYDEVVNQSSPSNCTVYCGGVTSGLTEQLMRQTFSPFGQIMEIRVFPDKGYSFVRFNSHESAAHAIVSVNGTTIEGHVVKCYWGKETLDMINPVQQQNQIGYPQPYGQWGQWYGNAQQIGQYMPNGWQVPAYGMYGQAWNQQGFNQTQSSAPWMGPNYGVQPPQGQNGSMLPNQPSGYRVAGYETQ
UniProt Q969X1: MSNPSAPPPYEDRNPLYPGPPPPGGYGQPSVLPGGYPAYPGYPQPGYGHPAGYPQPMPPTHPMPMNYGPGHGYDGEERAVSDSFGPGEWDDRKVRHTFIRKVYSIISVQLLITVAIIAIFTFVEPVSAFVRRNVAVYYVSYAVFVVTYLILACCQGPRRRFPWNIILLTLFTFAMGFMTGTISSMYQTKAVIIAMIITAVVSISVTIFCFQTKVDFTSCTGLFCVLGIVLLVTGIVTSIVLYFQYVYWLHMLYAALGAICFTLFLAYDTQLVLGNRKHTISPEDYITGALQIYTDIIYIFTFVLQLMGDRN
UniProt Q6I9Y2: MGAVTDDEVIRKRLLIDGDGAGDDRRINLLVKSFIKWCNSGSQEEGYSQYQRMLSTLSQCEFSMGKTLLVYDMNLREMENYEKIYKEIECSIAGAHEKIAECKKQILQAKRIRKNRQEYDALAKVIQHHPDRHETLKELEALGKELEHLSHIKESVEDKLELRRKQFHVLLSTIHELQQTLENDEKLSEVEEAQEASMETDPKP
UniProt Q8TDI8: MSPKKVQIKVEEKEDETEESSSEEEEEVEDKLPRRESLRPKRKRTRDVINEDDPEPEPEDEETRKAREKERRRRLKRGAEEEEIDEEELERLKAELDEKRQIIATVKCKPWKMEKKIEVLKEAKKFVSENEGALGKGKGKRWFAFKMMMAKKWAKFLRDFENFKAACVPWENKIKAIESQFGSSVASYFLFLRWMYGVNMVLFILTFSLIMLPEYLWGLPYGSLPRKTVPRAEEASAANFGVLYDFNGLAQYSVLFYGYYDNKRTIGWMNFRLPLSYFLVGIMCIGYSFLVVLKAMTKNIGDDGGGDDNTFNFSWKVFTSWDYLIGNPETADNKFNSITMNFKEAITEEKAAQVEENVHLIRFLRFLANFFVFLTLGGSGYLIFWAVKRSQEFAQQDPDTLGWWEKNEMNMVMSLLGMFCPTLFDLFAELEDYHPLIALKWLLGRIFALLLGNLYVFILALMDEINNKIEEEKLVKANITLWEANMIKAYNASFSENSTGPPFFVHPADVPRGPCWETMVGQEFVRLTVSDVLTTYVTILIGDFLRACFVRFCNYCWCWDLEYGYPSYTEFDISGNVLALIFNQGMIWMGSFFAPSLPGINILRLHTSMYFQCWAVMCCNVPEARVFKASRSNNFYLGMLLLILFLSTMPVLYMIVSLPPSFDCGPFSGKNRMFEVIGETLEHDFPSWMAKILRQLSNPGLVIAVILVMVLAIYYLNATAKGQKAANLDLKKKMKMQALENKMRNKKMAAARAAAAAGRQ
UniProt O00142: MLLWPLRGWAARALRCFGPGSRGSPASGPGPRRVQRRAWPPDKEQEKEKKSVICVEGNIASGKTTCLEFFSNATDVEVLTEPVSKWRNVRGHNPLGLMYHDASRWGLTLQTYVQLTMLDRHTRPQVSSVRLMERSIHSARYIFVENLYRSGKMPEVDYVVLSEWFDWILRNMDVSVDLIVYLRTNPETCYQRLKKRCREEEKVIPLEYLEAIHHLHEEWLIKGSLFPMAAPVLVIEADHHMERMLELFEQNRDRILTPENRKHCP
UniProt Q9Y2W1: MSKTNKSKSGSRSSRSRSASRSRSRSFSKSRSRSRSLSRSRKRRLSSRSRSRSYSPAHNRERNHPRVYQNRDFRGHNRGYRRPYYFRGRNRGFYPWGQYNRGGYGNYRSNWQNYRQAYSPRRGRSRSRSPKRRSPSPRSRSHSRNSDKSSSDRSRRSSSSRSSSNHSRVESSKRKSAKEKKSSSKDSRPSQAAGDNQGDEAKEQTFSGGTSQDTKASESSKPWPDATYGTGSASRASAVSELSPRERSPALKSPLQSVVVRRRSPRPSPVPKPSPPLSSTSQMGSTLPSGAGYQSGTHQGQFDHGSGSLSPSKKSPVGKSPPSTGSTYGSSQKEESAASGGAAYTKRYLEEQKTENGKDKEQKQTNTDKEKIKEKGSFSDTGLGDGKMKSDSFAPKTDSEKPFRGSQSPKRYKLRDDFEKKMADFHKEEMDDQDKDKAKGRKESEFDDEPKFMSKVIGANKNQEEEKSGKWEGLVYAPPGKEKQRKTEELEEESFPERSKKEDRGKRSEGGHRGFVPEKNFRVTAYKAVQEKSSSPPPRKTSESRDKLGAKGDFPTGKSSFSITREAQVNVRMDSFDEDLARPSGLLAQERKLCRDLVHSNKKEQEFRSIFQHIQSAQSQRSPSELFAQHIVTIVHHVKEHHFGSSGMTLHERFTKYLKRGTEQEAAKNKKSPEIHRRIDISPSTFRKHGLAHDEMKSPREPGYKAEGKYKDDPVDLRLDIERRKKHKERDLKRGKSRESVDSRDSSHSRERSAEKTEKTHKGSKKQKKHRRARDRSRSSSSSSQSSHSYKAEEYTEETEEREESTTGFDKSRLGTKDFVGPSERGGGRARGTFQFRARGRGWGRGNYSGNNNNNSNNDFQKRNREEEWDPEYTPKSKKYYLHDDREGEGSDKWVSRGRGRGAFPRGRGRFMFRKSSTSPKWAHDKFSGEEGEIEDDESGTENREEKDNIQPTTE
UniProt Q8TBQ9: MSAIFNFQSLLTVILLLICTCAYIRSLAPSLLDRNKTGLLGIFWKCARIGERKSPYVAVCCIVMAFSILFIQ
UniProt Q08117: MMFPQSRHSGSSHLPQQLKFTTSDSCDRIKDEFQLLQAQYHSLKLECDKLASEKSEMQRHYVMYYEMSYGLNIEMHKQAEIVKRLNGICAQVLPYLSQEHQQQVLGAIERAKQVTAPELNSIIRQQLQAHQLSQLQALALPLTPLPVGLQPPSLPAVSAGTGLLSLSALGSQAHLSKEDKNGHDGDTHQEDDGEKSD
UniProt Q5T1C6: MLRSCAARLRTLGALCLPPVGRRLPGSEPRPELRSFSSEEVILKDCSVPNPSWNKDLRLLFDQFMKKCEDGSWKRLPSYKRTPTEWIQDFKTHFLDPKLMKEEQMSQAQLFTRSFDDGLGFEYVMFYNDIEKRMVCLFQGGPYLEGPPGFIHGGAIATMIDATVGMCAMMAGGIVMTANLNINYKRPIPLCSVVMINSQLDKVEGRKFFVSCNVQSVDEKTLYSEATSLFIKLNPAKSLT
UniProt O60220: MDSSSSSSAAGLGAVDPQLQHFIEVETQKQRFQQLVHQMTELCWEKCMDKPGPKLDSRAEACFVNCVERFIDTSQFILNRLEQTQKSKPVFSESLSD
UniProt Q7Z403: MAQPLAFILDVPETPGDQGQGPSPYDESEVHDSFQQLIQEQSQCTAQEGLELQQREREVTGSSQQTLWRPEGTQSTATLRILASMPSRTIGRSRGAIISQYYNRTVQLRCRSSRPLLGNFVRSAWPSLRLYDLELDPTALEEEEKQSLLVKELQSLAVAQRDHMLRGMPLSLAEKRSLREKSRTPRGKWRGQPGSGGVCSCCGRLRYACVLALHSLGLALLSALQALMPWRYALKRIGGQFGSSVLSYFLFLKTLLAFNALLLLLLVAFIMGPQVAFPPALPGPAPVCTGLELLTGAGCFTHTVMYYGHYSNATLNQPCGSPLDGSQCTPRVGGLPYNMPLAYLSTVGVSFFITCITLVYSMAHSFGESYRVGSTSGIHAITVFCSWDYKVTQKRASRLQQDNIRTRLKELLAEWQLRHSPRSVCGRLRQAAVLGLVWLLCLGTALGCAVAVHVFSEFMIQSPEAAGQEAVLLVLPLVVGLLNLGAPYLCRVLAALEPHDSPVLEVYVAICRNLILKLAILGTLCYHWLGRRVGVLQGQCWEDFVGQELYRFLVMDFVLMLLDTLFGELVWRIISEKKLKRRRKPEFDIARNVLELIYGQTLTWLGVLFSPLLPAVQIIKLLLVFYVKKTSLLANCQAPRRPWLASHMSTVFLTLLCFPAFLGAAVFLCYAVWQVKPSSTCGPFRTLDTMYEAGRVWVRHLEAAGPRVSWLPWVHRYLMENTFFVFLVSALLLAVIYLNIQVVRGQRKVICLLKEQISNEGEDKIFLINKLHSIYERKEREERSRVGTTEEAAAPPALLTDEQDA

Compound in the first assay: O=C(O)c1ccc2c(c1)nc(Nc1cccc(Cl)c1)c1ccncc12 [silmitasertib]
Nature of the assay: log2 fold change, soluble protein after heating vs DMSO (PISA); higher = thermal stabilisation; K562 lysate, 10 uM; active = over 0.2 and 3.5 SD of the protein, either way, in both replicates (recomputed). The procedure, abridged: (§1)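 Soluble protein was defined as the supernatant remaining after 21,000xg for 90 min, following pooling of heated aliquots and adjustment to 0.5% NP-40 at 4°C. Before that, crude K562 extract at 1 mg/mL protein in PBS pH 7.4 with 1 mM MgCl2 was treated with 10 μM compound for 30 min and heated for 3 min across 48°C-58°C. Quantification used TMTpro 16plex LC-MS/MS with channel sums equalised, and values are log-two fold changes in thermal stability relative to solvent controls from duplicates.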
TIPIN (UniProt Q9BVW5): the log2 fold change was inactive: -0.03.

With TMEM160 (UniProt Q9NX00), the log2 fold change was inactive: 0.015.

In the case of THOP1 (UniProt P52888), the log2 fold change is inactive: 0.006.

As to TMEM161A (UniProt Q9NX61), the log2 fold change is inactive: 0.152.

With TKT isoform 2 (UniProt P29401), the log2 fold change was inactive: 0.001.

For TIA1 (UniProt P31483), the log2 fold change is inactive: -0.049.

Consider TMBIM1 (UniProt Q969X1), for which the log2 fold change was inactive: -0.022.

For THOC7 (UniProt Q6I9Y2), the log2 fold change was inactive: -0.029.

Take TMC1 (UniProt Q8TDI8): the log2 fold change is inactive: 0.02.

Turning to TMEM141 (UniProt Q96I45), the log2 fold change is inactive: -0.019.

On to TJP1 (UniProt G3V1L9), for which the log2 fold change is inactive: -0.061.

For the target TK2 isoform 6 (UniProt O00142), the log2 fold change is inactive: -0.068.

Regarding THRAP3 (UniProt Q9Y2W1), the log2 fold change is inactive: -0.04.

Compound in another assay: O=C1NC(=O)C(c2cnc3ccccn23)=C1c1cn2c3c(cc(F)cc13)CN(C(=O)N1CCCCC1)CC2
The assay is described as above. A digest of the protocol:
as §1
On to THUMPD3 (UniProt Q9BV44), for which the log2 fold change was inactive: 0.025.

On to TMEM167A (UniProt Q8TBQ9), for which the log2 fold change is inactive: 0.037.

Turning to TLE5 isoform 2 (UniProt Q08117), the log2 fold change was inactive: -0.008.

Consider TMEM167B (UniProt Q9NRX6), for which the log2 fold change was inactive: -0.033.

As to TGFBR3 (UniProt Q03167), the log2 fold change is inactive: -0.065.

TMED9 (UniProt Q9BVK6): the log2 fold change was inactive: 0.016.

Regarding THEM4 (UniProt Q5T1C6), the log2 fold change is inactive: 0.03.

In the case of TKFC (UniProt Q3LXA3), the log2 fold change is inactive: 0.01.

Turning to TMEM109 (UniProt Q9BVC6), the log2 fold change is inactive: 0.028.

As for TLR9 isoform 4 (UniProt Q9NR96), the log2 fold change is inactive: 0.

With TIMM8A (UniProt O60220), the log2 fold change was inactive: 0.085.

Regarding TM7SF3 (UniProt Q9NS93), the log2 fold change is inactive: 0.017.

As for TGS1 (UniProt Q96RS0), the log2 fold change was inactive: -0.015.

For TMEM126A (UniProt Q9H061), the log2 fold change is inactive: 0.07.

Consider TIMM44 (UniProt O43615), for which the log2 fold change is inactive: 0.029.

TMEM126B (UniProt Q8IUX1): the log2 fold change was inactive: -0.094.

TMC6 (UniProt Q7Z403): the log2 fold change was inactive: -0.056.

Turning to TMEM164 (UniProt Q5U3C3), the log2 fold change was inactive: 0.274.

For the target TIMM10B (UniProt Q9Y5J6), the log2 fold change was inactive: 0.034.

On to TIAL1 isoform 2 (UniProt Q01085), for which the log2 fold change was inactive: -0.049.

Consider TJAP1 (UniProt Q5JTD0), for which the log2 fold change was inactive: -0.003.

Turning to THOC1 (UniProt Q96FV9), the log2 fold change is inactive: -0.016.

With TJP2 isoform 7 (UniProt Q9UDY2), the log2 fold change was inactive: -0.003.

As for TIPIN (UniProt Q9BVW5), the log2 fold change is inactive: 0.035.

With TMEM160 (UniProt Q9NX00), the log2 fold change is inactive: -0.013.

THOP1 (UniProt P52888): the log2 fold change is inactive: -0.018.

Turning to TMEM161A (UniProt Q9NX61), the log2 fold change was inactive: -0.02.

For the target TKT isoform 2 (UniProt P29401), the log2 fold change was inactive: 0.

Take TIA1 (UniProt P31483): the log2 fold change was inactive: -0.035.

In the case of TMBIM1 (UniProt Q969X1), the log2 fold change is inactive: -0.07.

With THOC7 (UniProt Q6I9Y2), the log2 fold change is inactive: -0.026.

For the target TMC1 (UniProt Q8TDI8), the log2 fold change was inactive: -0.337.

Consider TMEM141 (UniProt Q96I45), for which the log2 fold change was inactive: 0.118.

Regarding TJP1 (UniProt G3V1L9), the log2 fold change was inactive: 0.127.

On to TK2 isoform 6 (UniProt O00142), for which the log2 fold change is inactive: -0.084.

For THRAP3 (UniProt Q9Y2W1), the log2 fold change was inactive: -0.024.

Compound in another assay: c1cn2cc(-c3ccc4cn[nH]c4c3)nc(Nc3ccc(N4CCOCC4)cc3)c2n1 [entospletinib]
The assay is described as above. The procedure, abridged: as §1
For THUMPD3 (UniProt Q9BV44), the log2 fold change was inactive: 0.023.

Turning to TMEM167A (UniProt Q8TBQ9), the log2 fold change was inactive: 0.126.

In the case of TLE5 isoform 2 (UniProt Q08117), the log2 fold change was inactive: 0.009.

On to TMEM167B (UniProt Q9NRX6), for which the log2 fold change is inactive: 0.031.

On to TGFBR3 (UniProt Q03167), for which the log2 fold change is inactive: -0.003.

Consider TMED9 (UniProt Q9BVK6), for which the log2 fold change is inactive: -0.073.

On to THEM4 (UniProt Q5T1C6), for which the log2 fold change is inactive: 0.023.

As for TKFC (UniProt Q3LXA3), the log2 fold change was inactive: 0.04.

With TMEM109 (UniProt Q9BVC6), the log2 fold change was inactive: -0.003.

Consider TLR9 isoform 4 (UniProt Q9NR96), for which the log2 fold change was inactive: 0.011.

Regarding TIMM8A (UniProt O60220), the log2 fold change is inactive: -0.014.

As for TM7SF3 (UniProt Q9NS93), the log2 fold change is inactive: -0.042.

In the case of TGS1 (UniProt Q96RS0), the log2 fold change is inactive: 0.011.

In the case of TMEM126A (UniProt Q9H061), the log2 fold change is inactive: -0.003.

On to TIMM44 (UniProt O43615), for which the log2 fold change is inactive: -0.026.

For TMEM126B (UniProt Q8IUX1), the log2 fold change was inactive: -0.025.

With TMEM164 (UniProt Q5U3C3), the log2 fold change was inactive: 0.059.

TIAL1 isoform 2 (UniProt Q01085): the log2 fold change is inactive: 0.028.

Turning to TJAP1 (UniProt Q5JTD0), the log2 fold change was inactive: -0.068.

With THOC1 (UniProt Q96FV9), the log2 fold change was inactive: -0.006.

Regarding TJP2 isoform 7 (UniProt Q9UDY2), the log2 fold change was inactive: -0.023.

On to TIPIN (UniProt Q9BVW5), for which the log2 fold change was inactive: -0.014.

Consider TMEM160 (UniProt Q9NX00), for which the log2 fold change was inactive: 0.099.

Consider THOP1 (UniProt P52888), for which the log2 fold change was inactive: 0.015.

TMEM161A (UniProt Q9NX61): the log2 fold change was inactive: 0.107.

As for TKT isoform 2 (UniProt P29401), the log2 fold change is inactive: 0.019.

For TIA1 (UniProt P31483), the log2 fold change is inactive: -0.045.

For TMBIM1 (UniProt Q969X1), the log2 fold change was inactive: 0.086.

Turning to THOC7 (UniProt Q6I9Y2), the log2 fold change was inactive: 0.045.

In the case of TMC1 (UniProt Q8TDI8), the log2 fold change is inactive: 0.012.

Take TK2 isoform 6 (UniProt O00142): the log2 fold change was inactive: 0.08.

For the target THRAP3 (UniProt Q9Y2W1), the log2 fold change was inactive: -0.031.

Source of the values: the supplement of paper PMC10849652.
